Experimental data: ChEMBL document CHEMBL4316593 (Eur J Med Chem, 2019)
This continues a long series; more values of the same kind are listed elsewhere.

Assays:
Assay type in all cases: cell-based
Settings in all cases: U-87MG ATCC
[1] = Inhibition of RTK/PI3K/AKT/mTOR signaling in human U87 cells assessed as up regulation of phosphohistidine phosphatase 1 gene expression at cytotoxic IC50 measured after 48 hrs relative to control
[2] = Inhibition of RTK/PI3K/AKT/mTOR signaling in human U87 cells assessed as up regulation of lysine acetyltransferase 6B gene expression at cytotoxic IC50 measured after 48 hrs relative to control
[3] = Inhibition of RTK/PI3K/AKT/mTOR signaling in human U87 cells assessed as up regulation of SREBF1 gene expression at cytotoxic IC50 measured after 48 hrs relative to control
[4] = Inhibition of RTK/PI3K/AKT/mTOR signaling in human U87 cells assessed as down regulation of ATMIN gene expression at cytotoxic IC50 measured after 48 hrs relative to control
[5] = Inhibition of RTK/PI3K/AKT/mTOR signaling in human U87 cells assessed as down regulation of COL12A1 gene expression at cytotoxic IC50 measured after 48 hrs relative to control
[6] = Inhibition of RTK/PI3K/AKT/mTOR signaling in human U87 cells assessed as up regulation of galectin 1 gene expression at cytotoxic IC50 measured after 48 hrs relative to control
[7] = Inhibition of RTK/PI3K/AKT/mTOR signaling in human U87 cells assessed as up regulation of G protein subunit gamma 7 gene expression at cytotoxic IC50 measured after 48 hrs relative to control
[8] = Inhibition of RTK/PI3K/AKT/mTOR signaling in human U87 cells assessed as up regulation of glucosidase II alpha subunit gene expression at cytotoxic IC50 measured after 48 hrs relative to control
[9] = Inhibition of RTK/PI3K/AKT/mTOR signaling in human U87 cells assessed as down regulation of YWHAG gene expression at cytotoxic IC50 measured after 48 hrs relative to control
[10] = Inhibition of RTK/PI3K/AKT/mTOR signaling in human U87 cells assessed as down regulation of CCNE1 gene expression at cytotoxic IC50 measured after 48 hrs relative to control
[11] = Inhibition of RTK/PI3K/AKT/mTOR signaling in human U87 cells assessed as up regulation of SNCG gene expression at cytotoxic IC50 measured after 48 hrs relative to control
[12] = Inhibition of RTK/PI3K/AKT/mTOR signaling in human U87 cells assessed as down regulation of RIPK2 gene expression at cytotoxic IC50 measured after 48 hrs relative to control
[13] = Inhibition of RTK/PI3K/AKT/mTOR signaling in human U87 cells assessed as down regulation of CTR9 gene expression at cytotoxic IC50 measured after 48 hrs relative to control
[14] = Inhibition of RTK/PI3K/AKT/mTOR signaling in human U87 cells assessed as up regulation of lysophosphatidylcholine acyltransferase 4 gene expression at cytotoxic IC50 measured after 48 hrs relative to control
[15] = Inhibition of RTK/PI3K/AKT/mTOR signaling in human U87 cells assessed as down regulation of ZNF721 gene expression at cytotoxic IC50 measured after 48 hrs relative to control
[16] = Inhibition of RTK/PI3K/AKT/mTOR signaling in human U87 cells assessed as up regulation of KRR1, small subunit processome component homolog gene expression at cytotoxic IC50 measured after 48 hrs relative to control
[17] = Inhibition of RTK/PI3K/AKT/mTOR signaling in human U87 cells assessed as down regulation of PSMD2 gene expression at cytotoxic IC50 measured after 48 hrs relative to control
[18] = Inhibition of RTK/PI3K/AKT/mTOR signaling in human U87 cells assessed as up regulation of male specific lethal 1 homolog gene expression at cytotoxic IC50 measured after 48 hrs relative to control
[19] = Inhibition of RTK/PI3K/AKT/mTOR signaling in human U87 cells assessed as down regulation of KIFAP3 gene expression at cytotoxic IC50 measured after 48 hrs relative to control
[20] = Inhibition of RTK/PI3K/AKT/mTOR signaling in human U87 cells assessed as down regulation of DUSP6 gene expression at cytotoxic IC50 measured after 48 hrs relative to control
[21] = Inhibition of RTK/PI3K/AKT/mTOR signaling in human U87 cells assessed as down regulation of CDC42SE1 gene expression at cytotoxic IC50 measured after 48 hrs relative to control
[22] = Inhibition of RTK/PI3K/AKT/mTOR signaling in human U87 cells assessed as down regulation of CXorf57 gene expression at cytotoxic IC50 measured after 48 hrs relative to control
[23] = Inhibition of RTK/PI3K/AKT/mTOR signaling in human U87 cells assessed as down regulation of TSR2 gene expression at cytotoxic IC50 measured after 48 hrs relative to control
[24] = Inhibition of RTK/PI3K/AKT/mTOR signaling in human U87 cells assessed as up regulation of enolase 3 gene expression at cytotoxic IC50 measured after 48 hrs relative to control
[25] = Inhibition of RTK/PI3K/AKT/mTOR signaling in human U87 cells assessed as up regulation of RPL32 gene expression at cytotoxic IC50 measured after 48 hrs relative to control
[26] = Inhibition of RTK/PI3K/AKT/mTOR signaling in human U87 cells assessed as down regulation of STAT1 gene expression at cytotoxic IC50 measured after 48 hrs relative to control
[27] = Inhibition of RTK/PI3K/AKT/mTOR signaling in human U87 cells assessed as up regulation of SEMA4B gene expression at cytotoxic IC50 measured after 48 hrs relative to control
[28] = Inhibition of RTK/PI3K/AKT/mTOR signaling in human U87 cells assessed as down regulation of TTLL3 gene expression at cytotoxic IC50 measured after 48 hrs relative to control
[29] = Inhibition of RTK/PI3K/AKT/mTOR signaling in human U87 cells assessed as up regulation of isochorismatase domain containing 2 gene expression at cytotoxic IC50 measured after 48 hrs relative to control
[30] = Inhibition of RTK/PI3K/AKT/mTOR signaling in human U87 cells assessed as down regulation of HSP90AA1 gene expression at cytotoxic IC50 measured after 48 hrs relative to control
[31] = Inhibition of RTK/PI3K/AKT/mTOR signaling in human U87 cells assessed as down regulation of WDR76 gene expression at cytotoxic IC50 measured after 48 hrs relative to control
[32] = Inhibition of RTK/PI3K/AKT/mTOR signaling in human U87 cells assessed as down regulation of FANCA gene expression at cytotoxic IC50 measured after 48 hrs relative to control

For CC(=O)C(=NNc1ccccc1C#N)C(C)=O, the log2FC [1] was 0.793, the log2FC [2] was 1.23 and the log2FC [3] was 1.89. For the same compound, the log2FC [4] was -0.58, the log2FC [5] was -1.63 and the log2FC [6] was 1.29. For the same compound, the log2FC [7] was 1.17, the log2FC [8] was 0.956 and the log2FC [9] was -0.413. It also gave a log2FC [10] of -0.876, a log2FC [11] of 1.6 and a log2FC [12] of -0.828. The log2FC [13] was -0.603, the log2FC [14] was 0.946 and the log2FC [15] was -1.37. It also gave a log2FC [16] of 0.728, a log2FC [17] of -1.26 and a log2FC [18] of 0.81. It also gave a log2FC [19] of -1.45, a log2FC [20] of -0.342 and a log2FC [21] of -0.806. For the same compound, the log2FC [22] was -1.22, the log2FC [23] was -0.947 and the log2FC [24] was 1.43. The log2FC [25] was 0.388, the log2FC [26] was -0.834 and the log2FC [27] was 1.63. It also gave a log2FC [28] of -1.05, a log2FC [29] of 0.999 and a log2FC [30] of -0.893. It also gave a log2FC [31] of -1.08 and a log2FC [32] of -0.864.
